Results deposited as PubChem BioAssay AID1224830 (NIAID, 2016)
Purpose: 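Host factors that control LPS-induced TNF expression in human macrophages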 (primary screen). Cell system: human THP-1 monocytic leukaemia cells, TNF dual-luciferase reporter clone, PMA-differentiated to macrophage-like cells. Reagent: siRNA pool against human genes, 50 nM. Timing: LPS for 4 h, given about 3 days after siRNA transfection. Treatment: bacterial LPS (TLR4 ligand), 10 ng/ml. Measurement: 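Ratio of firefly to renilla light, scaled to the plate median and expressed as a robust z-score per replicate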. Reading the numbers: TNF reporter robust z-score: higher = stronger TNF reporter response to LPS. Call rule: 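Each well counts as active if its z-score is over 2.8 or under -1.5; controls are left without a call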.
The whole screen tested about 18,000 reagents; shown is an unselected part. About 2,900 of them (16%) were called active. 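Calls are made per well; low scores hint the gene aids the LPS response, high scores that it dampens it.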 Repeated entries: four replicate wells of each siRNA pool.

gene | TNF reporter robust z-score | call
PLCH1 (phospholipase C eta 1) | 0.03 | inactive
PLCH1 (phospholipase C eta 1) | -0.14 | inactive
PLCH1 (phospholipase C eta 1) | -0.66 | inactive
PLCH1 (phospholipase C eta 1) | 0.19 | inactive
HSPA4 (heat shock protein family A (Hsp70) member 4) | -0.35 | inactive
HSPA4 (heat shock protein family A (Hsp70) member 4) | 0.93 | inactive
HSPA4 (heat shock protein family A (Hsp70) member 4) | 0.64 | inactive
HSPA4 (heat shock protein family A (Hsp70) member 4) | 2.21 | inactive
GNRH1 (gonadotropin releasing hormone 1) | 1.38 | inactive
GNRH1 (gonadotropin releasing hormone 1) | 0.91 | inactive
GNRH1 (gonadotropin releasing hormone 1) | 0.41 | inactive
GNRH1 (gonadotropin releasing hormone 1) | 0.39 | inactive
RXYLT1 (ribitol xylosyltransferase 1) | -0.02 | inactive
RXYLT1 (ribitol xylosyltransferase 1) | 1.15 | inactive
RXYLT1 (ribitol xylosyltransferase 1) | 0.49 | inactive
RXYLT1 (ribitol xylosyltransferase 1) | 0.84 | inactive
KRR1 (KRR1 small subunit processome component) | -0.39 | inactive
KRR1 (KRR1 small subunit processome component) | 0.09 | inactive
KRR1 (KRR1 small subunit processome component) | -0.69 | inactive
KRR1 (KRR1 small subunit processome component) | -0.01 | inactive
ACER1 (alkaline ceramidase 1) | -0.88 | inactive
ACER1 (alkaline ceramidase 1) | -0.52 | inactive
ACER1 (alkaline ceramidase 1) | -0.97 | inactive
ACER1 (alkaline ceramidase 1) | -1.48 | inactive
GINS2 (GINS complex subunit 2) | -1.91 | active
GINS2 (GINS complex subunit 2) | -1.84 | active
GINS2 (GINS complex subunit 2) | -1.34 | inactive
GINS2 (GINS complex subunit 2) | -1.82 | active
AZIN2 (antizyme inhibitor 2) | -0.59 | inactive
AZIN2 (antizyme inhibitor 2) | -0.9 | inactive
AZIN2 (antizyme inhibitor 2) | 1.29 | inactive
AZIN2 (antizyme inhibitor 2) | 0.45 | inactive
RNASE12 (ribonuclease A family member 12 (inactive)) | 0.82 | inactive
RNASE12 (ribonuclease A family member 12 (inactive)) | 0.91 | inactive
RNASE12 (ribonuclease A family member 12 (inactive)) | 1.3 | inactive
RNASE12 (ribonuclease A family member 12 (inactive)) | 0.28 | inactive
SENP6 (SUMO specific peptidase 6) | 0.85 | inactive
SENP6 (SUMO specific peptidase 6) | 1.73 | inactive
SENP6 (SUMO specific peptidase 6) | 2.2 | inactive
SENP6 (SUMO specific peptidase 6) | 1.46 | inactive
GDF6 (growth differentiation factor 6) | -0.87 | inactive
GDF6 (growth differentiation factor 6) | -0.56 | inactive
GDF6 (growth differentiation factor 6) | -0.31 | inactive
GDF6 (growth differentiation factor 6) | 0.04 | inactive

Entries listed so far whose gene name starts with A or a (8):
gene | TNF reporter robust z-score | call
ACER1 (alkaline ceramidase 1) | -0.88 | inactive
ACER1 (alkaline ceramidase 1) | -0.52 | inactive
ACER1 (alkaline ceramidase 1) | -0.97 | inactive
ACER1 (alkaline ceramidase 1) | -1.48 | inactive
AZIN2 (antizyme inhibitor 2) | -0.59 | inactive
AZIN2 (antizyme inhibitor 2) | -0.9 | inactive
AZIN2 (antizyme inhibitor 2) | 1.29 | inactive
AZIN2 (antizyme inhibitor 2) | 0.45 | inactive

Continued.
gene | TNF reporter robust z-score | call
HSD3B2 | -0.33 | inactive
HSD3B2 | 0.14 | inactive
HSD3B2 | -0.26 | inactive
HSD3B2 | 0.28 | inactive
PPIE (peptidylprolyl isomerase E) | -0.15 | inactive
PPIE (peptidylprolyl isomerase E) | 0 | inactive
PPIE (peptidylprolyl isomerase E) | -0.54 | inactive
PPIE (peptidylprolyl isomerase E) | -0.37 | inactive
RFPL4AL1 (ret finger protein like 4A like 1) | -0.11 | inactive
RFPL4AL1 (ret finger protein like 4A like 1) | 1.15 | inactive
RFPL4AL1 (ret finger protein like 4A like 1) | -0.85 | inactive
RFPL4AL1 (ret finger protein like 4A like 1) | 0.81 | inactive
ASPN (asporin) | -1.11 | inactive
ASPN (asporin) | -1.25 | inactive
ASPN (asporin) | -1.18 | inactive
ASPN (asporin) | -1.09 | inactive
FPR3 (formyl peptide receptor 3) | -1.05 | inactive
FPR3 (formyl peptide receptor 3) | -0.35 | inactive
FPR3 (formyl peptide receptor 3) | -0.9 | inactive
RABL6 (RAB, member RAS oncogene family like 6) | -1.35 | inactive
RABL6 (RAB, member RAS oncogene family like 6) | -0.2 | inactive
RABL6 (RAB, member RAS oncogene family like 6) | -0.59 | inactive
RABL6 (RAB, member RAS oncogene family like 6) | 0 | inactive
SERPINB3 (serpin family B member 3) | 0.25 | inactive
SERPINB3 (serpin family B member 3) | -0.17 | inactive
SERPINB3 (serpin family B member 3) | -0.82 | inactive
SERPINB3 (serpin family B member 3) | 0.77 | inactive
TRIM65 (tripartite motif containing 65) | -0.39 | inactive
TRIM65 (tripartite motif containing 65) | -1.07 | inactive
TRIM65 (tripartite motif containing 65) | -0.88 | inactive
TRIM65 (tripartite motif containing 65) | -1.13 | inactive
LAT (linker for activation of T cells) | -1.41 | inactive
LAT (linker for activation of T cells) | -0.88 | inactive
LAT (linker for activation of T cells) | -1.44 | inactive
LAT (linker for activation of T cells) | -0.65 | inactive
RNF149 (ring finger protein 149) | -0.35 | inactive
RNF149 (ring finger protein 149) | 0.81 | inactive
RNF149 (ring finger protein 149) | 0.86 | inactive
RNF149 (ring finger protein 149) | -1.46 | inactive
FAM217B (family with sequence similarity 217 member B) | 0.45 | inactive
FAM217B (family with sequence similarity 217 member B) | 1.17 | inactive
FAM217B (family with sequence similarity 217 member B) | 0.89 | inactive
FAM217B (family with sequence similarity 217 member B) | 0.66 | inactive
PKLR (pyruvate kinase L/R) | -1.53 | active
PKLR (pyruvate kinase L/R) | -0.49 | inactive
PKLR (pyruvate kinase L/R) | -1.08 | inactive
PKLR (pyruvate kinase L/R) | 1.42 | inactive
LBHD1 (LBH domain containing 1) | -1.16 | inactive
LBHD1 (LBH domain containing 1) | -0.95 | inactive
LBHD1 (LBH domain containing 1) | -1.74 | active
LBHD1 (LBH domain containing 1) | -1 | inactive
CCDC171 (coiled-coil domain containing 171) | 1.72 | inactive
CCDC171 (coiled-coil domain containing 171) | 0.2 | inactive
CCDC171 (coiled-coil domain containing 171) | 0.17 | inactive
CCDC171 (coiled-coil domain containing 171) | 2.37 | inactive
FIRRM (FIGNL1 interacting regulator of recombination and mitosis) | 0.47 | inactive
FIRRM (FIGNL1 interacting regulator of recombination and mitosis) | 0.71 | inactive
FIRRM (FIGNL1 interacting regulator of recombination and mitosis) | -0.07 | inactive
FIRRM (FIGNL1 interacting regulator of recombination and mitosis) | -0.49 | inactive
DPEP2 (dipeptidase 2) | 0.38 | inactive
DPEP2 (dipeptidase 2) | -0.35 | inactive
DPEP2 (dipeptidase 2) | 0.8 | inactive
DPEP2 (dipeptidase 2) | 0.63 | inactive
SEC22B (SEC22 homolog B, vesicle trafficking protein) | -0.83 | inactive
SEC22B (SEC22 homolog B, vesicle trafficking protein) | 0.22 | inactive
SEC22B (SEC22 homolog B, vesicle trafficking protein) | 0.38 | inactive
SEC22B (SEC22 homolog B, vesicle trafficking protein) | 1.17 | inactive
